From paper PMC6686008
These are yes or no findings as the source states them, for the method shown. For some of these results: Binding seen in cells or lysates may run through a third protein. Some entries that bind do so weakly or less than the wild type. For some of these results: Sequences can lack the tags named with a protein. Blank lines part the entries; values can stand above or below the binder they belong to.

Columns and labels:
[1] = target: T1, Ten1 (yeast two-hybrid fusion) (S. pombe) (UniProt P0C5Y7); test: two-hybrid; Stn1 and Ten1 as Gal4 fusions (Supplementary Fig 6); mated S. cerevisiae Y2HGold x Y187, SD-HTL or SD-HTLA plates
T1 sequence: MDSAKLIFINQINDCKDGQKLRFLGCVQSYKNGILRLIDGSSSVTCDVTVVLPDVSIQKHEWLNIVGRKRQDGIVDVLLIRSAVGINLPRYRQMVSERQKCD

[2] = target: T2, DNA polymerase α (Polα) (S. pombe) (UniProt P28040); test: co-IP; S. pombe cell extracts; lysis buffer 50 mM Tris pH 8.0, 150 mM NaCl, 10% glycerol, 5 mM EDTA, 0.5% NP-40; Dynabeads Protein G with anti-myc, anti-FLAG or anti-GFP
T2 sequence: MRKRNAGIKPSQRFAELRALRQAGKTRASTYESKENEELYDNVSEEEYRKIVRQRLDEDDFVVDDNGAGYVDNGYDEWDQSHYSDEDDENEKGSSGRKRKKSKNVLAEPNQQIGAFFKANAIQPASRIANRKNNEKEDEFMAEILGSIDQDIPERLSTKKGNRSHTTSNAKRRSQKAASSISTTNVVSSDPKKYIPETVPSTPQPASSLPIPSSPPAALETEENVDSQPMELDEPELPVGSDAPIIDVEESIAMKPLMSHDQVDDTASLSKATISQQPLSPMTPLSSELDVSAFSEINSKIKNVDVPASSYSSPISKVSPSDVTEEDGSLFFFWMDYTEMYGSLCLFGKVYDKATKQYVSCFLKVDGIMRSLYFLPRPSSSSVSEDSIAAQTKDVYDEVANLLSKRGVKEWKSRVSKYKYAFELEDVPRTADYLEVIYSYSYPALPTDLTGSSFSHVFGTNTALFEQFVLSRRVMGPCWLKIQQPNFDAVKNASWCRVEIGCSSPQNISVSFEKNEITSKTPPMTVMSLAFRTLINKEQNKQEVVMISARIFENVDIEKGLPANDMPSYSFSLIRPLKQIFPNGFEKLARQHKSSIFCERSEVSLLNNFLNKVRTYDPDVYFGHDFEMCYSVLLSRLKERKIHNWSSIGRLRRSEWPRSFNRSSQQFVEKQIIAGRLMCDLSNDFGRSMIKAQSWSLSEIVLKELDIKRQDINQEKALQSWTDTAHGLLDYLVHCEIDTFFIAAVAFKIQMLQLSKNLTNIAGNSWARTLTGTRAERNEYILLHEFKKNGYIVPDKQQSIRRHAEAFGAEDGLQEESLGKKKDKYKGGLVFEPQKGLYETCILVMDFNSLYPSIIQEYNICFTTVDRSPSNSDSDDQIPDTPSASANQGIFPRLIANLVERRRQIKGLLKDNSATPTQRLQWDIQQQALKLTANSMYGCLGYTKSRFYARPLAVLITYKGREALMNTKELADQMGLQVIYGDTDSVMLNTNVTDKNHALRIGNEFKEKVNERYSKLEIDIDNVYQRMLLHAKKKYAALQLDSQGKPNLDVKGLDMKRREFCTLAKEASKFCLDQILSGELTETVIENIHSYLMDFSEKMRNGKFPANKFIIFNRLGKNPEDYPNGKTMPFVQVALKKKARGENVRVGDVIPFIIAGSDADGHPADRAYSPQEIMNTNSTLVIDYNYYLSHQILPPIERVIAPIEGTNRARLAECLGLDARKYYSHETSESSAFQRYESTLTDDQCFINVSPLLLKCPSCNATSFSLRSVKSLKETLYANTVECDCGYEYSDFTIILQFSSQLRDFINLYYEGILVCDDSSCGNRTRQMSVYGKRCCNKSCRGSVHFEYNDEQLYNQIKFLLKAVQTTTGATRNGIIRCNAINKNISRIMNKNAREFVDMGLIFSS

[3] = target: T3, Ten1 (in fission yeast cells) (S. pombe) (UniProt P0C5Y7); test: as above
T3 sequence: T1 sequence

[4] = target: T4, GBD-Stn1 + Ten1 (Gal4 DNA-binding domain fused to Stn1, in the presence of untagged Ten1) (S. pombe) (UniProt Q0E7J7+P0C5Y7); test: two-hybrid; GAD fused to Tpz1, GBD fused to Stn1, in the presence of untagged Ten1; growth on -His plate indicates interaction; mated S. cerevisiae Y2HGold x Y187
T4 sequence 1: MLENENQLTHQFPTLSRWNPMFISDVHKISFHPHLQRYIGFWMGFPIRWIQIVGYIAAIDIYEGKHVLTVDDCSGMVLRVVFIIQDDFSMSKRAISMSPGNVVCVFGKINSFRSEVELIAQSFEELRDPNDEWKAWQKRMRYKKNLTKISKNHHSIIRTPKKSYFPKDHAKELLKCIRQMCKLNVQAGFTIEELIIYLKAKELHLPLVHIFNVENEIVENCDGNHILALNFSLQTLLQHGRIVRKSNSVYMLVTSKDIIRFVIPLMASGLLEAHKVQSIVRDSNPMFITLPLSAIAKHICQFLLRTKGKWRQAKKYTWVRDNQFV
T4 sequence 2: T1 sequence

[5] = target: T5, Stn1 (in fission yeast cells) (S. pombe) (UniProt Q0E7J7); test: co-IP; S. pombe whole cell extract, FLAG-IP; lysis buffer 50 mM Tris pH 8.0, 150 mM NaCl, 10% glycerol, 5 mM EDTA, 0.5% NP-40; 2 mM DSP added to stabilize the interaction
T5 sequence: T4 sequence 1

Pot1 (S. pombe) = target: T6, Pot1 (S. pombe) (UniProt O13988); test: co-IP; S. pombe cell extracts; lysis buffer 50 mM Tris pH 8.0, 150 mM NaCl, 10% glycerol, 5 mM EDTA, 0.5% NP-40; Dynabeads Protein G with anti-myc, anti-FLAG or anti-GFP
T6 sequence: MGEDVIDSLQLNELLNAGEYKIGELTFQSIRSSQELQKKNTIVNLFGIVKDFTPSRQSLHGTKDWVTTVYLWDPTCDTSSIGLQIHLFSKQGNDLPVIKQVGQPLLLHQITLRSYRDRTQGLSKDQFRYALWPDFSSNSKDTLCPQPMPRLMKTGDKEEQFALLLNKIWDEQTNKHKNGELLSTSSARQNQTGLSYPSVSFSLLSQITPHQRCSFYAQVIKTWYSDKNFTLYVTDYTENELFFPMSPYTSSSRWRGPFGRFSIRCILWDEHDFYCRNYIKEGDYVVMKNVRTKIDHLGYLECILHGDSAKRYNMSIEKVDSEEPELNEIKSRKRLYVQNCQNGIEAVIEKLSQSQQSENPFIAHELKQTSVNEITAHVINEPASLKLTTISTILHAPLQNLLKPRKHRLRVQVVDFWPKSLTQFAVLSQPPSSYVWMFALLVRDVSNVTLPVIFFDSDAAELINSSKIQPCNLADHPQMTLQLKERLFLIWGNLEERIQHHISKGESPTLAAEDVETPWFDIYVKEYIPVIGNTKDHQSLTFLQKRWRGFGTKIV

Poz1 (S. pombe) = target: T7, Poz1 (S. pombe) (UniProt O13852); test: as above
T7 sequence: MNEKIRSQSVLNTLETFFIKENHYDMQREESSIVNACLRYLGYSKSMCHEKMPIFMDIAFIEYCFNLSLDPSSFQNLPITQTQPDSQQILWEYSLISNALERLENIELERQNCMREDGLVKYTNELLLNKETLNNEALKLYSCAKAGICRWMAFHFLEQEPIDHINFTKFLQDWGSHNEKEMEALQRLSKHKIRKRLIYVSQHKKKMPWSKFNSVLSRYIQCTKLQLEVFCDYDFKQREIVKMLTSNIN

binding [1]: binds
B1: Stn1 (yeast two-hybrid fusion, Stn1-Ten1 assay) (protein, UniProt Q0E7J7 1-325)
chain: T4 sequence 1

binding [2]: binds | binding [3]: binds
B2: Stn1 (in fission yeast cells) (protein, UniProt Q0E7J7 1-325)
chain: T4 sequence 1

binding [4]: binds
B3: GAD-Tpz1 (Gal4 activation domain fused to Tpz1) (protein, UniProt O14246 1-508)
chain: MSNCLKHPWLENGLLNLIKNADVLPIRVFKCQPLQIFEYIRYEHPIRCKLSDTEFYIEAEFSSQSISDLNNFTEKRITSLRGGIVTLGNFLIHLIPSQSGIIPWIQVESFNFQGCEGAVFGNPKAITTSALFNALLQSPYLAALANEFNRSIKEGSSYQEASLSQQEKPNDNTSNSRDIKNNIQFHWKNMTSLSIEECIIPKGQQLILEKESEENTTHGIYLEERKMAQGLHNSVSETPEVKQEDNDEDLDAYSWSSSTDSAGEIPSLPTNRKILEKIAEKPPPFESPLEDDETPDQTNEHEANQVNVSQLPLNPRGSGISGRPVESTEQLNSSLTIERSQSIQSTDSKQRVETQSHRRSKIEIFDAQDELFDRSICTTIDDSTGKLLNAEETPIKTGDLHSTSASSVISCTPPAINFTSDICNEQIELEYKRKPIPDYDFMKGLETTLQELYVEHQSKKRRLELFQLTNNHQKNSEACEMCRLGLPHGSFFELLRDWKKIEEFRNKS

binding [5]: binds
B4: Tpz1 (wild type, in fission yeast cells) (protein, UniProt O14246 1-508)
chain: B3 chain

binding (Pot1 (S. pombe)): binds | binding (Poz1 (S. pombe)): binds
B5: myc-tagged wild-type Tpz1 (protein, UniProt O14246 1-508)
chain: B3 chain
